Taken from: PubChem BioAssay AID1259254 (NCATS, 2017)
Here is a random part of about 59,000 deposited reagents. In the full data, about 1,550 (2.6%) got an active call. 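G2 share is only a proxy for re-replication; each gene was hit by three separate siRNAs, and active genes were retested.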 The raw values are shown without normalisation. Entries without a mark were called inactive. The record does not give: the amount of reagent.

- Screen: 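Gene knock-downs that lead to re-replication, shown by excess G2 DNA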 (primary screen)
- System: human HCT116 colorectal cancer cells
- Reagent: single siRNA against human genes
- Timing: 3 days
- Measurement: 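Imaged Hoechst DNA stain sorts each cell into a cycle phase by DNA amount; per plate, G2 fraction set to 0% for non-targeting and 100% for GMNN siRNA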
- Direction: G2 robust z-score and G2 cells, % of GMNN control: higher = more G2 cells, more excess DNA replication; raw share of cells in G2: higher = larger share of cells with G2 DNA content
- Active means: 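Active siRNAs have a G2 robust z of 5 or more median absolute deviations over the median, which in these data means about 38% or higher of GMNN control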

gene | PubChem SID | G2 robust z-score | G2 cells, % of GMNN control | raw share of cells in G2 (%)
OCM2 | SID160778343 | -0.52 | -0.695 | 3.19
OCM2 | SID160778344 | 0.548 | 6.82 | 8.04
OCM2 | SID160778345 | -0.136 | 2.01 | 3.84
MIB1 | SID160746205 | 3.95 | 30.8 | 15.4
MIB1 | SID160746206 | 1.84 | 15.9 | 12.2
MIB1 | SID160746207 | -0.524 | -0.723 | 4.09
POLR1F | SID160761764 | 0.82 | 8.74 | 6.75
POLR1F | SID160761765 | 3.72 | 29.2 | 13.1
POLR1F | SID160761766 | 2.38 | 19.7 | 9.49
OR6C74 | SID160762221 | -0.838 | -2.93 | 2.52
OR6C74 | SID160762222 | 0.369 | 5.56 | 5.03
OR6C74 | SID160762223 | 0.126 | 3.85 | 4.42
KIF20B | SID160722563 | 0.0703 | 3.46 | 6.16
KIF20B | SID160722565 | -0.674 | -1.78 | 4.53
KIF20B | SID160722566 | -0.857 | -3.06 | 2.15
STK38L | SID160735003 | 1.35 | 12.5 | 9.47
STK38L | SID160735013 | 0.382 | 5.65 | 7.25
STK38L | SID160735022 | -0.955 | -3.75 | 2.48
THRB-AS1 | SID160769406 | -0.8 | -2.66 | 2.62
THRB-AS1 | SID160769407 | 0.98 | 9.86 | 6.82
THRB-AS1 | SID160769408 | 0.165 | 4.13 | 4.35
GFI1 | SID160770485 | -0.628 | -1.45 | 2.89
GFI1 | SID160770495 | -0.0667 | 2.5 | 6.02
GFI1 | SID160770505 | -0.414 | 0.0526 | 3.13
IZUMO4 | SID160732332 | -0.734 | -2.2 | 1.18
IZUMO4 | SID160754798 | 1.17 | 11.2 | 8.59
IZUMO4 | SID160754799 | -0.471 | -0.347 | 3.23
PPP6R2 | SID160722847 | 0.03 | 3.18 | 6.77
PPP6R2 | SID160722849 | -0.184 | 1.67 | 4.64
PPP6R2 | SID160722850 | -0.614 | -1.35 | 2.91
CRYL1 | SID160731348 | -0.857 | -3.06 | 3.11
CRYL1 | SID160740006 | -0.0622 | 2.53 | 4.77
CRYL1 | SID160740007 | -1.11 | -4.81 | 3.77
KPNA4 | SID160776354 | -0.725 | -2.13 | 4.27
KPNA4 | SID160776355 | -1.01 | -4.14 | 4.11
KPNA4 | SID160776356 | 0.513 | 6.57 | 6.61
SERPINB10 | SID160714295 | -1.01 | -4.15 | 3.45
SERPINB10 | SID160714296 | 1.04 | 10.3 | 7.4
SERPINB10 | SID160714297 | 0.402 | 5.8 | 5.24
KRT18P55 | SID160763154 | 1.25 | 11.8 | 7.93
KRT18P55 | SID160763155 | -0.218 | 1.43 | 3.6
KRT18P55 | SID160763156 | 0.157 | 4.07 | 4.5
TFF2 | SID160717966 | -0.734 | -2.19 | 4.16
TFF2 | SID160717967 | -0.183 | 1.68 | 4.56
TFF2 | SID160734210 | -0.85 | -3.01 | 2.28
ZNF343 | SID160748755 | 1.76 | 15.3 | 8.2
ZNF343 | SID160748756 | -0.169 | 1.78 | 6.71
ZNF343 | SID160748757 | -0.573 | -1.06 | 3.3
PGAP4 | SID160752104 | -0.793 | -2.61 | 3.24
PGAP4 | SID160752105 | 1.13 | 10.9 | 6.7
PGAP4 | SID160752106 | 0.248 | 4.71 | 3.83
FNBP1 | SID160735324 | 0.533 | 6.72 | 9.07
FNBP1 | SID160735325 | 0.164 | 4.12 | 5.53
FNBP1 | SID160735326 | -0.678 | -1.81 | 3.25
SERPINC1 | SID160720973 | -1.16 | -5.21 | 2.95
SERPINC1 | SID160720983 | 0.215 | 4.48 | 6.67
SERPINC1 | SID160720992 | -1.18 | -5.31 | 2.01
TIMMDC1 | SID160740541 | 0.0359 | 3.22 | 4.76
TIMMDC1 | SID160740542 | -0.569 | -1.04 | 3.83
TIMMDC1 | SID160740543 | 2.02 | 17.2 | 8.88
OR9G1 | SID160766424 | 4.41 | 34 | 15.4
OR9G1 | SID160766425 | -0.845 | -2.98 | 2.11
OR9G1 | SID160766426 | 3.96 | 30.8 | 17.9
ZMYM2 | SID160719261 | -0.586 | -1.16 | 4.62
ZMYM2 | SID160719262 | -0.711 | -2.04 | 3.09
ZMYM2 | SID160719263 | -0.228 | 1.37 | 3.83
MTHFSD | SID160747964 | 6.09 (active) | 45.8 | 20.6
MTHFSD | SID160747965 | 0.33 | 5.29 | 6.14
MTHFSD | SID160747966 | -0.912 | -3.45 | 4.22

Only “G2 cells, % of GMNN control”, for 6 of the entries above:
IZUMO4 [SID160754798]	11.2
IZUMO4 [SID160754799]	-0.347
PPP6R2 [SID160722847]	3.18
PPP6R2 [SID160722849]	1.67
PPP6R2 [SID160722850]	-1.35
CRYL1 [SID160731348]	-3.06
